These are yes or no findings as the source states them, for the method shown. In cells and extracts the contact can be indirect. A yes stands for co-enrichment or nearness to the bait. Other partners may have been found. For some assays here: Where a sequence is shown, tags or fusion partners need not be part of it.
Experiments:
[1] = biological target: T1, Flag-tagged pantothenate kinase 4 (PanK4), wild type (mouse) (UniProt Q80YV4); assay: affinity purification with mass spectrometry; anti-flag coated agarose beads, lysates (400 µg, n = 4) of TA muscle injected with rAAV6-PanK4, overnight at 4 °C; washed twice with 120 mM HEPES, 240 mM NaCl pH 7.4; eluted with laemmli buffer; pulldown from PanK4 KO muscle as negative control
T1 sequence: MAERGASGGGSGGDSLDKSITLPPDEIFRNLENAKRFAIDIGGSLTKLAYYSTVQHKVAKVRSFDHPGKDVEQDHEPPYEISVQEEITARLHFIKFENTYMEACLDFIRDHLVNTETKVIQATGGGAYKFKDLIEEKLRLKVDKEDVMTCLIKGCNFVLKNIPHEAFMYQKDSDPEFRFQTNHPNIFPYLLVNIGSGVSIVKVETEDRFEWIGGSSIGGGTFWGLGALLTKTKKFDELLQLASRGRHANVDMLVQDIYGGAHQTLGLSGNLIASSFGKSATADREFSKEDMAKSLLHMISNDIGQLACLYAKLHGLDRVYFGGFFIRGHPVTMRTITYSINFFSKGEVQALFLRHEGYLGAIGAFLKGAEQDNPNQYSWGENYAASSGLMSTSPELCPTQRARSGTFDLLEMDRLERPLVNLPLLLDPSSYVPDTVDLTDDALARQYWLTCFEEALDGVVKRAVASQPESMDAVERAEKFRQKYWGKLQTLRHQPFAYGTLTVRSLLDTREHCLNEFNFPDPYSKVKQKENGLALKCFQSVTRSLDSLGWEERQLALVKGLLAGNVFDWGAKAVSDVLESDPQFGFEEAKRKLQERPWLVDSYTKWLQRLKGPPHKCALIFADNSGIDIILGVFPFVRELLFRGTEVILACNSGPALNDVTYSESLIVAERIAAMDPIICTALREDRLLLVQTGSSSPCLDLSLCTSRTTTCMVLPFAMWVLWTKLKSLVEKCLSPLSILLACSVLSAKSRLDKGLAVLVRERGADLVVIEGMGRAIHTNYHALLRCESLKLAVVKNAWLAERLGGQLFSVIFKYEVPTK

[2] = biological target: T2, pantothenate kinase 4 (PanK4), endogenous (mouse (endogenous in C57BL/6J TA muscle)) (UniProt Q80YV4); assay: affinity purification with mass spectrometry; anti-PanK4 antibody on protein G agarose beads, lysates (400 µg, n = 2) of TA muscle injected with control rAAV6-MCS, overnight at 4 °C; washed twice with 120 mM HEPES, 240 mM NaCl pH 7.4; eluted with laemmli buffer; pulldown from PanK4 KO muscle as negative control
T2 sequence: T1 sequence

B1: 3-hydroxybutyrate dehydrogenase 1 (BDH1) (enzyme, UniProt Q80XN0 47-343)
chain: ASQADAASGKAILITGCDSGFGFSLAKHLHSKGFLVFAGCLMKDKGDAGVKELDSLKSDRLRTIQLNVCNSEEVEKAVETIRSGLKDPEKGMWGLVNNAGISTFGEVEFTSMETYKEVAEVNLWGTVRTTKSFLPLLRRAKGRVVNISSMLGRMANPARSPYCITKFGIEAFSDCLRYEMHPLGVKVSVVEPGNFIAATSLYSPERIQAIAKKMWDDLPEVVRKDYGRKYFDEKIAKMETYCNSGSTDTSSVINAVTHALTAATPYTRYHPMDYYWWLRMQIMTHFPGAISDKIYIH
With B1 the binding [1] was “binds” and the binding [2] was “binds”.
